The target of this test is proteasome 26S subunit, non-ATPase 7 (PSMD7) (human (endogenous in AGS)) (UniProt P51665). Description: co-IP; GC (AGS) cell lysate in IP buffer with 0.5% NP40; 3 ug anti-PSMD7 and Protein G Sepharose overnight; RAD23B in the precipitate detected by Western blot. (In western blotting, separated proteins are transferred to a membrane and probed.)

Sequences of proteins named here, by UniProt entry; tags and fusion partners are left off.
UniProt P51665: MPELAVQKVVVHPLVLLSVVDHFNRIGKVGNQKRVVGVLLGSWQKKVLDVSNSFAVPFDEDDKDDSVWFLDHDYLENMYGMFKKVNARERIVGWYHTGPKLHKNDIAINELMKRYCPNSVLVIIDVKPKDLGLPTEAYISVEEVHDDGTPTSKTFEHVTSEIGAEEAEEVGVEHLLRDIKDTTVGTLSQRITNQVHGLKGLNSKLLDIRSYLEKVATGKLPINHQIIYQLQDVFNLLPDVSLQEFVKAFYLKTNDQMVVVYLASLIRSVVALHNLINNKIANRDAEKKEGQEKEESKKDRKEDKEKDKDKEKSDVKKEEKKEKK
UniProt P54727: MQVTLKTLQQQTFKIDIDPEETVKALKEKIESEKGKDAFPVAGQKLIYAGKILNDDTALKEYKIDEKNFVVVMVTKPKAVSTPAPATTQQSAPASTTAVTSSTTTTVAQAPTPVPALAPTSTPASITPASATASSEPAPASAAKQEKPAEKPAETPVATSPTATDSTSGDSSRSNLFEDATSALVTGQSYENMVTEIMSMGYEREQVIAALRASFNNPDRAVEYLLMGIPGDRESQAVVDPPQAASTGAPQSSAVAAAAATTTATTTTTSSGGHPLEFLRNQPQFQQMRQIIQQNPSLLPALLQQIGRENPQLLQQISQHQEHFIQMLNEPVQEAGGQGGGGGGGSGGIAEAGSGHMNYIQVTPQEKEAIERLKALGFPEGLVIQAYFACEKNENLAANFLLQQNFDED

Results are given in words; binding and its absence hold for the method and conditions named. In cells and extracts the contact can be indirect. Some binding calls cover weakened binding; strength is not graded here.

“RAD23 homolog B (RAD23B) (from UniProt P54727 1-409)”: the binding result is reported as “binds”.

These data come from PMC8416741.
